The nature of this data set: 19F NMR 5FU release study with N-acetyl-L-cysteine methyl ester. It is filed as physicochemical. To be noted: reaction with N-acetyl cysteine (methyl ester), up to 24 h. Here is the method: Reaction of the model systems with N-acetyl-L-cysteine methyl ester was assessed by ^19F NMR.
Acrylate-5FU conjugate (0.125 M) in d^6-DMSO (0.25 mL) was prepared in an NMR tube. N-Acetyl cysteine methyl ester (1.9 mg, 0.011 mmol) or glutathione (3.4 mg, 0.011 mmol) in d^6-DMSO was prepared. The cysteine/glutathione solution was added to the NMR tube, and the tube was inverted several times. The ^19F NMR was taken immediately for t = 0 measurement. Further measurements were taken at t = 30 min and t = 60 min.

As for “4-Methoxyphenyl (E)-3-(5-Fluoro-2,4-dioxo-3,4-dihydropyrimidin-1(2H)-yl)acrylate [compound 13]”, the “5FU release observed by 19F NMR” value is recorded as “small amount of release after 24 h”.
The value for “(E)-N-(4-((3-Chloro-4-fluorophenyl)amino)-7-methoxyquinazolin-6-yl)-3-(5-fluoro-2,4-dioxo-3,4-dihydropyrimidin-1(2H)-yl)acrylamide [compound 57]” was “no evidence of 5FU release”.

These data come from publication PMC10510387, “Targeting Cytotoxic Agents through EGFR-Mediated Covalent Binding and Release” (Journal of Medicinal Chemistry, 2023).
